Results are given in words; binding and its absence hold for the method and conditions named. For part of these data: Binding seen in cells or lysates may run through a third protein. Some binding calls cover weakened binding; strength is not graded here. For part of these data: Where a sequence is shown, tags or fusion partners need not be part of it. Blank lines part the entries; values can stand above or below the binder they belong to.
How the values were obtained:
[1] = molecular target: T1, Treponema pallidum ribosomal protein L14 (TP0199) (Treponema pallidum) (UniProt O83229); test: two-hybrid; baits in pGBKT7g and preys in pGADT7g, haploid strains AH109 and Y187 mated; growth of diploids on medium lacking Leu, Trp and His with 0 to 100 mM 3-AT; quadruplicates
T1 sequence: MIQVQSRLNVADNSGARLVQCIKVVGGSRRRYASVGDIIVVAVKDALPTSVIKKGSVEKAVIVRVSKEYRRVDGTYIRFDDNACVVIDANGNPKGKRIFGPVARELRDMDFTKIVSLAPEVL

[2] = molecular target: T2, Treponema pallidum RsfA (TP0738) (Treponema pallidum) (UniProt O83720); test: as above
T2 sequence: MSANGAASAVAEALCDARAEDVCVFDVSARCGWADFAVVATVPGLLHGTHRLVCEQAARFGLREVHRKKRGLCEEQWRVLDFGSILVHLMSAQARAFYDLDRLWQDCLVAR

[3] = molecular target: T3, MBP-tagged maize chloroplastic L14 (RPL14) (Zea mays) (UniProt P08529); test: pull-down; 25 ug soluble fractions of E. coli BL21(DE3) lysates mixed; NusA-tagged preys co-purified with MBP fusions on amylose beads; 50 mM Tris-HCl pH 8.0, 100 mM NaCl, room temperature 30 min; Western blot
T3 sequence: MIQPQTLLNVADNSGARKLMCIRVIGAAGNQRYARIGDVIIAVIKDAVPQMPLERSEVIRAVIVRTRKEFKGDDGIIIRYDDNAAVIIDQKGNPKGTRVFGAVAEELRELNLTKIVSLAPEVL

binding [1]: binds
B1: Treponema pallidum RsfA (TP0738) (protein, UniProt O83720 1-111)
chain: T2 sequence

binding [2]: binds
B2: Treponema pallidum ribosomal protein L14 (TP0199) (protein, UniProt O83229 1-122)
chain: T1 sequence

binding [3]: binds
B3: NusA-His6-tagged maize Iojap (maize RsfA) (protein, UniProt Q41822 63-228)
chain: SQSASSSNVNFGRGDDADKLLEDLLKQHGEVVYSSGGPPDPTVEADDDAECLSFAVSLAKAASEIKATDIRVLCVRRLVYWTRFFIILTAFSNAQIDAISSKMRDIGEKQFSKVASGDTKPNSWTLLDFGDVVVHIFLPQQRAFYNLEEFYGNATPIELPFDTQRQ
